Results published in patent US20150299312A1 (TECHNISCHE UNIVERSIT T DRESDEN, published 2015).
Residue numbers refer to the chain shown, from its start. No constants are given. Whether binding was seen depends on the method and setting. Some entries that bind do so weakly or less than the wild type.

Experiments:
[1] = biological target: T1, P-selectin glycoprotein ligand 1 (PSGL-1) with the O-bound glycan structure 6-sulfo N-acetyl lactosamine (6-sulfo LacNAc) (human) (UniProt Q14242); assay: FACS on slan-DCs
T1 sequence (looked up): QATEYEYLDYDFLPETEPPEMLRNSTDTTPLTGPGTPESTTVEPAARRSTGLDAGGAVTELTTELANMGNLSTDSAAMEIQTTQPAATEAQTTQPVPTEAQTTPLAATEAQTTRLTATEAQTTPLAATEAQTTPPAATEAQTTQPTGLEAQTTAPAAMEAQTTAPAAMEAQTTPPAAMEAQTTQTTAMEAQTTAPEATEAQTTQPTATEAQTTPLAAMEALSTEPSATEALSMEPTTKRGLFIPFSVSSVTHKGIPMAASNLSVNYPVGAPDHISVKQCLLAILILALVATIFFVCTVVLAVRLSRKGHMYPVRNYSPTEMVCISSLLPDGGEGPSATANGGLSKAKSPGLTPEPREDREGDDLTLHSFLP

[2] = biological target: T1, P-selectin glycoprotein ligand 1 (PSGL-1) with the O-bound glycan structure 6-sulfo N-acetyl lactosamine (6-sulfo LacNAc) (human); assay: FACS on native slan-DCs, detection with anti-mouse-IgM-Alexa Fluor 488

B1: monoclonal IgM antibody MB4 (antibody, V domains shown)
VH: EVKLQESGPGLVQPSQSLSITCTVSGFSLTTYGVHWIRQSPGKGLEWLGVIWSGGGTDFNVAFMSRLSINKDNSKSQIFFKMNSLQANDTAIYYCARRTTNDGNYAFAYWGQGTLVTVS
VL: DIVMTQSPLSLPVSLGDQASISCRSSQNILHSDGSTYLEWYLQKPGQSPKLLIYKVSNRFSGVPDRFSGSGSGTDFTLKISRVEAEDLGVYYCFQGSHVPWTFGGGTKLEIKR
notes: also called anti-slan antibody MB4
binding [1]: binds
binding [2]: binds

B2: monoclonal IgM antibody MB6 (antibody, V domains shown)
VH: B1 VH with Q5E, E6Q, P14L, M64I, I78V
VL: B1 VL with S35N
notes: also called anti-slan antibody MB6
binding [1]: binds
binding [2]: binds
